Test results from publication PMC8593015 (Scientific Reports, 2021).
“And” between values parts separate entries of the source, which are not always exact repeats. Identical values can stand only once.

Target: T1, M. tb EgtD (Mycobacterium tuberculosis, UniProt P9WN47)
T1 construct: thioredoxin (N, cleaved yes); polyhistidine (N, cleaved yes); made in house; host or cells: E. coli (T7 cells), pET32-derived vector
T1 sequence (P9WN47 1-321): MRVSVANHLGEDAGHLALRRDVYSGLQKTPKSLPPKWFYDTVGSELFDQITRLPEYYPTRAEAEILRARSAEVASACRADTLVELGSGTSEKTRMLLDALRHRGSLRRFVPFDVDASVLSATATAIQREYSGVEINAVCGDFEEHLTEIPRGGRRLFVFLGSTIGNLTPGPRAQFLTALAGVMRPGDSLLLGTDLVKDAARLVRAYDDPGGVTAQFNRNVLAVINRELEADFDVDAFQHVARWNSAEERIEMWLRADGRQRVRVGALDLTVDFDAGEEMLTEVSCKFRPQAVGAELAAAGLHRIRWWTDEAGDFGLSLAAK
Assay: biochemical

Compound: Cc1ccc(NC(=O)c2ccc(CN3CCN(C)CC3)cc2)cc1Nc1nccc(-c2cccnc2)n1 [Imatinib]
- EC50: < 20 µM and 8.8 µM
